Measurements taken from PubChem BioAssay AID330 (DTP/NCI, 2004).
The list is a part of this screen's results and no random one: it is rich in T/C values a quarter to a half above the control, in often repeated tests (any T/C) and in doses without a T/C. Further doses and runs are listed elsewhere. T/C gives the treated animals as a percentage of the vehicle group. Some entries give survivors of the animals treated and no T/C: the source files T/C as zero there, which appears to mark a toxic dose or a test without result, not a measured value. Some survivor counts are full or nearly so, which does not show that the dose was tolerated: the source hardly ever lists a survival T/C far under the control, and the zero likely stands for such cases as well. Survivors were counted at the toxicity check, usually on the fifth day, unless a day is given; later deaths do not show. Schedule codes are those of the source, taken here to give the interval after Q, in days (D) or hours (H), and the number of doses after X. Some doses were run more than once; the values are given in rising order. For survival time, this PubChem deposit counts one and a half times the control or more as active, and values a quarter to a half above the control carry no call in these data; other NCI protocols may use other cut-offs. Some T/C values carry the count of animals alive at the toxicity check (mostly the fifth day); without a count, all were alive then.

Tested on: P388 leukemia ip, CD2F1 mice, survival T/C
Assay: NCI In Vivo Anticancer Drug Screen. Data for tumor model P388 Leukemia (intraperitoneal) in CD2F1 (CDF1) mice
Conditions: T/C endpoint: median survival time, higher T/C = longer survival
[1] = dose: 100.0 mg/kg/injection, schedule: Q01DX005 (ip), vehicle: Klucel (hydroxypropylcellulose) (HPC)
[2] = dose: 200.0 mg/kg/injection, schedule: Q01DX005 (ip), vehicle: Klucel (hydroxypropylcellulose) (HPC)
[3] = dose: 100.0 mg/kg/injection, schedule: Q01DX009 (ip), vehicle: distilled water + Tween-80
[4] = dose: 200.0 mg/kg/injection, schedule: Q01DX009 (ip), vehicle: distilled water + Tween-80
[5] = dose: 400.0 mg/kg/injection, schedule: Q01DX001 (ip), vehicle: saline with Tween-80
[6] = dose: 200.0 mg/kg/injection, schedule: Q01DX009 (ip), vehicle: saline with Tween-80

Q: `CC1Cc2ccccc2[N+]1(C)C` (configuration not stated) was tested. Which survivor count (dose: 100.0 mg/kg/injection, schedule: Q01DX001 (ip), vehicle: saline) did it give?
A: 2 of 6

Q: What about the survivor count (dose: 200.0 mg/kg/injection, schedule: Q01DX001 (ip), vehicle: saline) of the same molecule?
A: 0 of 6

Q: What about the survivor count (dose: 400.0 mg/kg/injection, schedule: Q01DX001 (ip), vehicle: saline) of the same molecule?
A: 0 of 6

Q: Which T/C [1] does the source give for `C=C1C(=O)OC2C1C(OC(=O)/C(C)=C/C)CC1(C)C(=O)CCC(=C)C21` (configuration not stated) here?
A: 125 % of control [5 of 6 alive]

Q: Which results are given for `CN(C)c1cccc2c(S(=O)(=O)NCCCCCCCCCCCCN)cccc12`?
A: survivor count (dose: 200.0 mg/kg/injection, schedule: Q01DX001 (ip), vehicle: saline + Tween-80 + alcohol): 6 of 6; survivor count (dose: 400.0 mg/kg/injection, schedule: Q01DX001 (ip), vehicle: saline + Tween-80 + alcohol): 4 of 6

Q: Which T/C [2] does the source give for `CC(O)COc1ccccc1P(c1ccccc1)c1ccccc1` (configuration not stated) here?
A: 125 % of control

Q: With `CC1(C)C(=O)NC(=O)c2ccccc21` as the molecule, how does the survivor count [1] read?
A: 6 of 6

Q: And the survivor count [2]?
A: 0 of 6

Q: How did the T/C [3] turn out when `O=C(N/N=C/c1cccc(O)c1O)N/N=C/c1cccc(O)c1O` was run?
A: 136 % of control

Q: And the T/C [4]?
A: 134 % of control [5 of 6 alive]

Q: What about the survivor count (dose: 400.0 mg/kg/injection, schedule: Q01DX009 (ip), vehicle: distilled water + Tween-80) of the same molecule?
A: 3 of 6 and 5 of 6

Q: Which survivor count (dose: 400.0 mg/kg/injection, schedule: Q04DX003 (ip), vehicle: saline) does the source give for `CCOC(=O)C[CH2][Sn]([Cl])([Cl])[Cl]` here?
A: 0 of 6

Q: Which results are given for `COc1cc2c(c(OC)c1OC)-c1cccc(=O)cc1C(NC(C)=O)CC2` (configuration not stated)?
A: T/C (dose: 2.5 mg/kg/injection, schedule: Q01DX009 (ip), vehicle: Klucel (hydroxypropylcellulose) (HPC)): 135 and 136 % of control; survivor count (dose: 40.0 mg/kg/injection, schedule: Q01DX009 (ip), vehicle: Klucel (hydroxypropylcellulose) (HPC)): 1 of 6

Q: Which results are given for `O=[N+]([O-])c1sccc1SSc1ccsc1[N+](=O)[O-]`?
A: survivor count (dose: 100.0 mg/kg/injection, schedule: Q01DX001 (ip), vehicle: Klucel (hydroxypropylcellulose) (HPC)): 6 of 6; survivor count (dose: 200.0 mg/kg/injection, schedule: Q01DX001 (ip), vehicle: Klucel (hydroxypropylcellulose) (HPC)): 6 of 6; survivor count (dose: 400.0 mg/kg/injection, schedule: Q01DX001 (ip), vehicle: Klucel (hydroxypropylcellulose) (HPC)): 6 of 6

Q: `CN1CCC(CC2CCCCN2)CC1` (configuration not stated) was tested. Which survivor count [3] did it give?
A: 3 of 6

Q: And the survivor count [4]?
A: 0 of 6

Q: Which survivor count [1] does the source give for `COc1cc2nncc(Cl)c2cc1OC` here?
A: 3 of 6

Q: And the survivor count [2]?
A: 1 of 6

Q: How did the survivor count [5] turn out when `CN1CCC2(CC1)N=C1CCN(C)CC1S2` (configuration not stated) was run?
A: 0 of 6

Q: With `O=C1C2C3CCC(C2C(=O)N1CO)C1C2C(=O)N(CO)C(=O)C2C31` (configuration not stated) as the molecule, how does the T/C (dose: 50.0 mg/kg/injection, schedule: Q01DX009 (ip), vehicle: saline with Tween-80) read?
A: 145 % of control

Q: And the survivor count [6]?
A: 0 of 5 and 5 of 6

Q: Which survivor count [6] does the source give for `COC(=O)CCC1=C(OC)C(=O)C(OC)=CC1=O` here?
A: 3 of 6

Q: Which survivor count (dose: 400.0 mg/kg/injection, schedule: Q04DX002 (ip), vehicle: Klucel (hydroxypropylcellulose) (HPC)) does the source give for `NC(Cc1ccccc1)=S=O` here?
A: 4 of 6

Q: `CCOCN(COCC)c1ccccn1` was tested. Which T/C (dose: 100.0 mg/kg/injection, schedule: Q01DX009 (ip), vehicle: saline with Tween-80) did it give?
A: 125 and 130 % of control

Q: What about the survivor count [6] of the same molecule?
A: 2 of 6 and 4 of 6

Q: For `COc1ccc(C(C)N(C)C)cc1` (configuration not stated), which survivor count (dose: 200.0 mg/kg/injection, schedule: Q01DX001 (ip), vehicle: other) is on record?
A: 0 of 6

Q: And the survivor count (dose: 400.0 mg/kg/injection, schedule: Q01DX001 (ip), vehicle: other)?
A: 0 of 6

Q: How did the survivor count [5] turn out when `CC12CC(CC1=O)CC2S(=O)(=O)O` (configuration not stated) was run?
A: 3 of 6

Q: Which results are given for `OC[P+](CO)(CO)CO`?
A: survivor count (dose: 25.0 mg/kg/injection, schedule: Q01DX005 (ip), vehicle: saline with Tween-80): 3 of 6; survivor count (dose: 50.0 mg/kg/injection, schedule: Q01DX005 (ip), vehicle: saline with Tween-80): 0 of 6; survivor count (dose: 100.0 mg/kg/injection, schedule: Q01DX005 (ip), vehicle: saline with Tween-80): 0 of 6; survivor count (dose: 200.0 mg/kg/injection, schedule: Q01DX005 (ip), vehicle: saline with Tween-80): 0 of 6

Q: `c1ccc(CCn2c(-c3ccccn3)nc3ccccc32)nc1` was tested. Which survivor count [2] did it give?
A: 4 of 6
